# Results: US8465780B2, “Borate micro emulsion and method for making the same” (Nisus Corporation, priority 2006, dated 2013)
# At least one compound was matched to its structure with a doubt left.
# What was measured:
# [1] = Borate dissolution test in 300 mm water column; assay type: physicochemical; details: 0.2 g (0.08 weight %) in 250 ml deionized water, 300 mm column
# Method: In this example, different forms of borates were added to columns of water and a swimming pool to determine their comparative dispersion and rate of dissolution characteristics.
# Two hundred and fifty (250) ml of deionized water was placed in each of 4 measuring cylinders to give a 300 mm vertical column of water in each cylinder to mimic in small scale the depth of water in a swimming pool. […] The results of the addition were then observed visually and recorded.
# [2] = tested on: algae; experiment: Algae growth suppression in lake water (Example 4); assay type: cell-based; details: 0.1 weight percent in lake water, two months outside in sun
# [3] = Free chlorine and pH in 2000 gallon swimming pools (Example 6)
smiles,measurement,setting,value
"O=BOB(O)OB(O)OB=O [Sodium tetraborate, sodium tetraborate]","dispersion and dissolution, observed visually",[1],sank immediately to the bottom of the cylinder and formed an encrusted mass that did not dissolve within a few minutes
same,"algal growth, visual inspection",[2],slight growth
same,pH for swimming pool water,[3]; 1:25 pm,>8.4
same,pH for swimming pool water,[3]; 2:10 pm,>8.4
same,pH for swimming pool water,[3]; 2:50 pm,>8.4
same,pH for swimming pool water,[3]; 3:30 pm,>8.4
same,pH for swimming pool water,[3]; 4:10 pm,>8.4
same,pH for swimming pool water,[3]; 5:00 pm,>8.4
same,pH for swimming pool water,"[3]; 9:45 am, before calcium hypochlorate addition, 4 pounds borate per 2000 gallons",>8.4
same,pH for swimming pool water,"[3]; 10:00 am, time of calcium hypochlorate addition",>8.4
same,pH for swimming pool water,[3]; 10:55 am,>8.4
same,pH for swimming pool water,[3]; 11:15 am,>8.4
same,pH for swimming pool water,[3]; 12:00 pm,>8.4
same,pH for swimming pool water,[3]; 12:40 pm,>8.4
same,pH at which the water was buffered,"[3]; summary over the day, 8.4 = maximum measurable on the pH meter",> 8.4
